Source: patent US8765733B2, “Amine substituted methanesulfonamide derivatives as vanilloid receptor ligands” (Gruenenthal GmbH, priority 2011, dated 2014)
At least one compound was matched to its structure with a doubt left.

Target: vanilloid receptor 1 (VR1/TRPV1 receptor) (Homo sapiens, UniProt Q8NER1)
Assay: FLIPR functional assay (Ca2+ influx, capsaicin) on the vanilloid receptor 1
Format: cell-based
Parameters: key: AG=agonist
Conditions: AG = agonist printed instead of Ki

**Q.** How did the “(f) (human being) Cap: agonist” value turn out when `COc1cc(C(C)C(=O)NCc2ccc(C(F)(F)F)nc2N2CCC(C)CC2)ccc1CNS(C)(=O)=O` (stereo not shown) [Example 50, 2-(3-methoxy-4-(methylsulfonamidomethyl)phenyl)-N-((2-(4-methylpiperidin-1-yl)-6-(trifluoromethyl)pyridin-3-yl)methyl)propanamide] was run?
**A.** AG
